The source of these data is paper PMC11102558.

Amino acid sequences for entries named in this document (tags omitted).
UniProt P46940: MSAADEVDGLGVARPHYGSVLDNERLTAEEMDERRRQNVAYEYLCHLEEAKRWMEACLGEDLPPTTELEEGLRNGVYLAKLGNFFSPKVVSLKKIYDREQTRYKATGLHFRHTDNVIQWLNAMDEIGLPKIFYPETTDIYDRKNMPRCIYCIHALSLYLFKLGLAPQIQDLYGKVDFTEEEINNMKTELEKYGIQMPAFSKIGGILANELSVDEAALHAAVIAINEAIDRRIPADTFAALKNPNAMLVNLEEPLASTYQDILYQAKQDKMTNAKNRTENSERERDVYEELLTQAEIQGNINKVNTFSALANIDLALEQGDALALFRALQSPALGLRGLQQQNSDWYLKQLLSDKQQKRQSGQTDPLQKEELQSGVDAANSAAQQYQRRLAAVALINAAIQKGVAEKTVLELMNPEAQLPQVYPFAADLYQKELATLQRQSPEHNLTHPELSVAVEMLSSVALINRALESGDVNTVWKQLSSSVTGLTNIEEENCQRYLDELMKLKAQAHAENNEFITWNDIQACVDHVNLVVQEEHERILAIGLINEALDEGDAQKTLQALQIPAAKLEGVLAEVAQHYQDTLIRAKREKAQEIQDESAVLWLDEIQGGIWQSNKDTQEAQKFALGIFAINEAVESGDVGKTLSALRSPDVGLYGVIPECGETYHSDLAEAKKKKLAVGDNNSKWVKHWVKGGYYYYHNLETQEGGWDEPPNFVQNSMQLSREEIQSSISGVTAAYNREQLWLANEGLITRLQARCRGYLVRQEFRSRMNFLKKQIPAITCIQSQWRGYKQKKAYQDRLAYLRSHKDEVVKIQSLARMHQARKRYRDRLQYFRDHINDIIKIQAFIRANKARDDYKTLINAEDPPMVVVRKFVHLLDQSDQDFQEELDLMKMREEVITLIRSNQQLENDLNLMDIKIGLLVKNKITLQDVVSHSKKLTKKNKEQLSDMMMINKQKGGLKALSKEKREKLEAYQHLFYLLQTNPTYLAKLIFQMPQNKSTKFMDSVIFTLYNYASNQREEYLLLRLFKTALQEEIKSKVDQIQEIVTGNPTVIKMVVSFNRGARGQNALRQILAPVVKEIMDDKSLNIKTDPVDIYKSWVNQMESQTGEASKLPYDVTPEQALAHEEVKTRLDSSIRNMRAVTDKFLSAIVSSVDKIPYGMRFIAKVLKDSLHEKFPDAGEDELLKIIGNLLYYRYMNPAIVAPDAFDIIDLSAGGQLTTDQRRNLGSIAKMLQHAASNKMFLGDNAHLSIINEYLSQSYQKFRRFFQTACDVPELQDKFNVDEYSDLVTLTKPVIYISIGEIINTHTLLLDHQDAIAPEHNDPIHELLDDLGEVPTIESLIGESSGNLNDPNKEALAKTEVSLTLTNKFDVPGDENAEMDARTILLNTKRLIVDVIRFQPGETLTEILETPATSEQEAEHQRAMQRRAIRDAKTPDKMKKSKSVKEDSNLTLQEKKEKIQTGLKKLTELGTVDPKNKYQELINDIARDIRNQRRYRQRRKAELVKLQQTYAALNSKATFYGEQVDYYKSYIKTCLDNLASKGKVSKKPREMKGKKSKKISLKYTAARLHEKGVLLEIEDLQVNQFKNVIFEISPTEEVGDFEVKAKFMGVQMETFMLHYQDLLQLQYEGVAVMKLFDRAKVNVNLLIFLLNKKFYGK

Results are given in words; binding and its absence hold for the method and conditions named. Binding seen in cells or lysates may run through a third protein. A yes stands for co-enrichment or nearness to the bait. Other partners may have been found. Where a sequence is shown, tags or fusion partners need not be part of it.

The experiment deals with T1, FLAG-tagged ROBO4 (Roundabout4), expressed from an adenoviral vector in HUVECs (UniProt Q8WZ75).
T1 sequence: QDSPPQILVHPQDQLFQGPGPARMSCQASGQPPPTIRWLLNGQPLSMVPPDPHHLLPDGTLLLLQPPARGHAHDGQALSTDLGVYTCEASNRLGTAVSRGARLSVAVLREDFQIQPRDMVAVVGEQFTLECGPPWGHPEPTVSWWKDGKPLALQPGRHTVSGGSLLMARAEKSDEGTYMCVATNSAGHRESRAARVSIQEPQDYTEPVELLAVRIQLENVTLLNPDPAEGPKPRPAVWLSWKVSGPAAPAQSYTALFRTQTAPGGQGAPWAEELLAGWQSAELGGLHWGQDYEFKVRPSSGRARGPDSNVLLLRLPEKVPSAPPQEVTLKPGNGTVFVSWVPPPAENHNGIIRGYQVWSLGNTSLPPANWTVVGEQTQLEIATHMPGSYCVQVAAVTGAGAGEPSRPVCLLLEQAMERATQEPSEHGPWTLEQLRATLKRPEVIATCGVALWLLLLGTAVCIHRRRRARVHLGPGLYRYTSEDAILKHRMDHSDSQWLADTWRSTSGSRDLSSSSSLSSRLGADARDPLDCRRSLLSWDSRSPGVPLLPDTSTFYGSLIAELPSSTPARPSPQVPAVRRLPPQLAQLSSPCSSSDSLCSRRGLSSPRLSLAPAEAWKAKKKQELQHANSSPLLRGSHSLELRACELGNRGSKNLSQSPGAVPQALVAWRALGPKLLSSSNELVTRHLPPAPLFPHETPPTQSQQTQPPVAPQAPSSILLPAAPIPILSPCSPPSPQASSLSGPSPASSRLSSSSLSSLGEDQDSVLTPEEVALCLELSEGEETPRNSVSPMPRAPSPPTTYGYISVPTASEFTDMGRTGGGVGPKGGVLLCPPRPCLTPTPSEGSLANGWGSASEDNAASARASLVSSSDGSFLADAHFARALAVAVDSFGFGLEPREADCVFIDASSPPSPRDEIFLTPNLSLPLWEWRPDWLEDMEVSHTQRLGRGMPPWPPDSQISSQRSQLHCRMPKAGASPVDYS
Put plainly: affinity purification with mass spectrometry; HUVECs infected with adenoviral vector for ROBO4-FLAG (control AcGFP), 36 h; lysis in 50 mM Tris-HCl pH 7.4, 150 mM NaCl, 1% Triton X-100, 0.5% sodium deoxycholate, 1 mM EDTA; FLAG immunoprecipitation kit; trypsin digest, LC-MS/MS.

“Ras GTPase-activating-like protein IQGAP1 (IQ motif-containing GTPase-activating protein 1), endogenous in HUVECs (from UniProt P46940 1-1657)”: the binding result is on record as “binds”.
